## Library screening results

The chains behind the UniProt entries cited, without tags or fusion partners.
UniProt E9BF75, entry or part of it: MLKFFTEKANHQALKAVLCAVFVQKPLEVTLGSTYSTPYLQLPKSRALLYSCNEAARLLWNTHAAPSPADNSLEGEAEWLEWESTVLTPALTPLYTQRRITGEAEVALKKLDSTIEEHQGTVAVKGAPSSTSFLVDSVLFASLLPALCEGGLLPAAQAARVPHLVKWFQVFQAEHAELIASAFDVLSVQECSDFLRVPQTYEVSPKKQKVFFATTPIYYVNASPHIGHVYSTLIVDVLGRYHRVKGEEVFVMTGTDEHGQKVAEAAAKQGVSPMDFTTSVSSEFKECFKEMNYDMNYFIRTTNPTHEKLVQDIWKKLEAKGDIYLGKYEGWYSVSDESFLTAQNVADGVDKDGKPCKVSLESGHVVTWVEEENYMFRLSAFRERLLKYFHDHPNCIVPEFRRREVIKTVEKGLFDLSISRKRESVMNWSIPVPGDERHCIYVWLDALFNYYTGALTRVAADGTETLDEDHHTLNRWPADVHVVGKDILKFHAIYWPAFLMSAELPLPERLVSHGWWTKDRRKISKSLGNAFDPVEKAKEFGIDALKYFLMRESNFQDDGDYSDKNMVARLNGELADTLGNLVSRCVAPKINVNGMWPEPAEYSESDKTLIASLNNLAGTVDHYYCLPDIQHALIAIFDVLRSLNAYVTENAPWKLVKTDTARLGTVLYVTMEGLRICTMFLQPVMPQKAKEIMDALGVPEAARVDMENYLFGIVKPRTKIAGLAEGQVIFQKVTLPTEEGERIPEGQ

Measurements from “University of Dundee, Small-Polar-MMV Screening Library” (2021), ChEMBL document CHEMBL3988442.

LdMetRS: 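Methionyl-tRNA synthetase (putative), Leishmania donovani (UniProt E9BF75). Primary screen of methionyl-tRNA synthetase; the read-out is not stated. The test concentration is not given. Values are per cent inhibition. About 68,000 compounds were tested under these conditions; 0.035% (about 24) showed 50% or more at least once.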
Mtb heat-shock: 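Assay on Mycobacterium tuberculosis, filed only as a heat shock assay from Cornell; the read-out is not stated. The concentration is filed as 10 mM, unlikely as a test dose, so the dose is not known. Direction is inferred from retests: higher values go with stronger inhibition. Of about 69,000 compounds tested this way, about 930 (1.4%) reached 50% or more in at least one test.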

Results are percentages, as filed. The controls that fix the scale are not given in the record; negative values are as filed. This is an unselected part of the compounds tested.

O=C(O)C(F)(F)F.[H][C@@]12CN(Cc3[nH]cnc3C)C[C@]1([H])OCCN2c1ncccn1 read Mtb heat-shock: -0.6538%.
CN(C)c1ccc(C(=O)N2CCCC2c2cnn(C)c2)cn1 (stereo not given) read LdMetRS: 13.13%; Mtb heat-shock: 9.329%.
CCN1CC(=O)c2sc(NC(C)C)nc2C1 read LdMetRS: 3.641%; Mtb heat-shock: -5.885%.
Cc1nc(N2CCN(C)CC2)ncc1C(=O)N1CCC(O)(CO)CC1 read LdMetRS: 13.01%; Mtb heat-shock: 3.099%.
CN(Cc1ccccc1)c1ncccc1CNC1CCCC1 read LdMetRS: 14.66%; Mtb heat-shock: -16%.
CC(=O)c1cccc(-c2c[nH]c(C)n2)c1 read LdMetRS: 10.65%; Mtb heat-shock: -16.28%.
O=C(C1CC1)N1CCN(Cc2ccncc2)c2ncccc2C1.O=C(O)C(F)(F)F.O=C(O)C(F)(F)F read Mtb heat-shock: -4.601%.
COC(=O)c1cccc(S(=O)(=O)Nc2ccc(F)c(C(N)=O)c2)c1 read LdMetRS: 9.946%; Mtb heat-shock: -7.537%.
Cc1cc(N2CCC(NC(=O)CCc3cnn(C)c3)CC2)nc(C)n1 read LdMetRS: 12.63%; Mtb heat-shock: 14.19%.
[H][C@]12CCN(S(=O)(=O)c3ccc(F)cc3)[C@@]1([H])CC[C@@H](COCC)O2 read Mtb heat-shock: -24.78%.
COc1ccc2[nH]cc(C(=O)N3C[C@@H](O)[C@H](NS(C)(=O)=O)C3)c2c1 read LdMetRS: 18.35%; Mtb heat-shock: -12.7%.
CCS(=O)(=O)CC(C)N(C)C(=O)COc1ccccc1C#N (stereo not given) read LdMetRS: 15.32%; Mtb heat-shock: 17.55%.
CC1CN(C(=O)Nc2cc(C(F)(F)F)c[nH]c2=O)CCO1 (stereo not given) read LdMetRS: 15.76%; Mtb heat-shock: 8.284%.
N#Cc1cccnc1N1CCCC(CO)(Cc2ccc(F)cc2)C1 (stereo not given) read LdMetRS: 13.11%; Mtb heat-shock: 8.713%.
COc1ccc2c(c1)OCC(CNC(=O)NC(C)(C)C)C2 (stereo not given) read LdMetRS: 4.587%; Mtb heat-shock: -3.351%.
[H][C@@]12C[C@H](C(=O)N3CCCC3)[C@@]([H])(CN(C(=O)NCc3ccccc3C)C1)O2 read Mtb heat-shock: 6.094%.
CN1C[C@@H](NC(=O)CC(C)(C)C)C[C@H]1c1nc(-c2cnccn2)no1 read LdMetRS: 9.023%; Mtb heat-shock: -0.1121%.
COCC1CCN(C(=O)c2cn(Cc3ccccc3F)nn2)CC1 read LdMetRS: 10.63%; Mtb heat-shock: 2.162%.
COC(=O)c1ccc(C(=O)NCc2nn(C)c3c2COCC3)cc1 read LdMetRS: 4.636%; Mtb heat-shock: -31.42%.
Cc1ccc(CN2CCc3c(CN4CCCC4)n[nH]c3C2)s1.O=C(O)C(F)(F)F.O=C(O)C(F)(F)F read Mtb heat-shock: -35.56%.
Fc1ccc(CN2CCO[C@H]3[C@H](OCCN4CCCC4)CC[C@@H]32)cc1 read LdMetRS: 13.81%.
O=S(=O)(CCO)CCc1ccccc1Cl read LdMetRS: 10.3%; Mtb heat-shock: 17.45%.
CN(Cc1nc(Cc2cccc(C(F)(F)F)c2)no1)CC1CCCCO1 (stereo not given) read LdMetRS: 12.27%; Mtb heat-shock: 13.05%.
O=C(NCCN1CCCCCC1=O)c1n[nH]c(=O)c2ccccc12 read LdMetRS: 10.12%; Mtb heat-shock: -0.1415%.
O=C(NCCCn1cccn1)c1csc2c1CCCC2 read LdMetRS: 8.239%; Mtb heat-shock: -7.409%.
COc1ccccc1N1CCC(CNCc2ccc(C#N)cc2)C1 (stereo not given) read LdMetRS: 21.11%; Mtb heat-shock: -5.737%.
Cc1noc(-c2ccnc(N3CCCN(C4CCOCC4)CC3)c2)n1 read LdMetRS: 3.308%; Mtb heat-shock: -31.43%.
Cc1ccc(OCC2CCCN(C(=O)CCn3ccccc3=O)C2)cc1 (stereo not given) read LdMetRS: 9.148%; Mtb heat-shock: -6.115%.
CCS(=O)(=O)N1CCc2c(COCCN(C)C)cncc2C1.O=C(O)C(F)(F)F.O=C(O)C(F)(F)F read Mtb heat-shock: -5.489%.
CN(C)CC(=O)N1CCC2(CCc3cc(-c4cccnc4)ccc32)CC1.O=C(O)C(F)(F)F.O=C(O)C(F)(F)F read Mtb heat-shock: 53.15%.
CC(C)(C)N1CC(C(=O)N2CCN(CCn3cccc3)CC2)CC1=O (stereo not given) read LdMetRS: 7.805%; Mtb heat-shock: -2.072%.

Some entries from above, unchanged:

compound	LdMetRS	Mtb heat-shock
COC(=O)c1ccc(C(=O)NCc2nn(C)c3c2COCC3)cc1	4.636%	-31.42%
CC(=O)c1cccc(-c2c[nH]c(C)n2)c1	10.65%	-16.28%
Cc1nc(N2CCN(C)CC2)ncc1C(=O)N1CCC(O)(CO)CC1	13.01%	3.099%